# In patent US20020036154A1, “Solid pharmaceutical dosage formulation of hydrophobic drugs” (priority 2000, published 2002):
# At least one compound was matched to its structure with a doubt left.
# Experiment: Dissolution profiles of CCN00401 Accudep Cores (paddles, 50 rpm, pH 8.0 TRIS buffer)
# Format: physicochemical
# Conditions: 50 rpm paddles, n=3, FIG. 6
smiles,measurement,setting,value
"O=C(Nc1cccc2c(=O)cc(-c3nnn[nH]3)oc12)c1ccc(OCCCCc2ccccc2)cc1 [CCN00401, pranlukast]",dissolution at 15 minutes,"SLS incorporated in polymer film Accudep Core (25% SLS), 1 mg CCN00401, vs control core",significantly faster dissolution
same,dissolution at 15 minutes,"SLS mixed directly with CCN00401 (50/50) Accudep Core, vs control core",significantly faster dissolution
